The values below come from PubChem BioAssay AID280 (DTP/NCI, 2004).

This test relates to nude mice, LOX melanoma ip, survival T/C. The test is described as follows: NCI In Vivo Anticancer Drug Screen. Data for tumor model Human Amelanotic Melanoma (LOX) (intraperitoneal) in NU/NU BALB/C (nude) mice. Particulars: T/C endpoint: median survival time, schedule: Q04DX003 (ip), higher T/C = longer survival. The procedure:
The antitumor activity of compounds was measured in mice bearing transplantable tumors. Survival or tumor size were measured and the results are expressed as the measurement made in the treated group (T) divided by the measurement made in the vehicle treated control group (C). The tumor model used in this assay is Human Amelanotic Melanoma (LOX) (intraperitoneal) in NU/NU BALB/C (nude) mice

The list shows only some results of the screen, not a fair sample: it covers a few groups of compounds. Other doses and runs of a compound may be missing. T/C gives the treated animals as a percentage of the vehicle group. For survival time, this PubChem deposit counts one and a half times the control or more as active, and values a quarter to a half above the control carry no call in these data; other NCI protocols may use other cut-offs. Schedule codes are those of the source, taken here to give the interval after Q, in days (D) or hours (H), and the number of doses after X. Some T/C values are marked as having no survivor count here; that says nothing about deaths at the dose.

As for `CC(=O)OCC12CCC(C)=CC1OC1C(O)C(OC(C)=O)C2(C)C12CO2` (centres undefined), the T/C is 103 % of control [survivor count not shown] (dose: 0.5 mg/kg/injection, vehicle: saline); 109 % of control [survivor count not shown] (dose: 1.0 mg/kg/injection, vehicle: saline); 95 % of control [survivor count not shown] (dose: 2.0 mg/kg/injection, vehicle: saline); 106 % of control [survivor count not shown] (dose: 4.0 mg/kg/injection, vehicle: saline).

Consider `CC(O)C1/C=C/C=C/C(=O)OC2CC3OC4C5OC5(C)C(O)CC4(COC(=O)C(O)C(C)CCO1)C2(C)C31CO1` (centres undefined), for which the T/C runs as follows: (dose: 6.25 mg/kg/injection, vehicle: saline + alcohol) 117 % of control [survivor count not shown]; (dose: 12.5 mg/kg/injection, vehicle: saline + alcohol) 121 % of control [survivor count not shown]; (dose: 25.0 mg/kg/injection, vehicle: saline + alcohol) 128 % of control [survivor count not shown]; (dose: 50.0 mg/kg/injection, vehicle: saline + alcohol) 153 % of control [survivor count not shown]; (dose: 100.0 mg/kg/injection, vehicle: saline + alcohol) 165 % of control [survivor count not shown].
